The other results are listed elsewhere or left out.
How the values were obtained:
Assay in all cases: log2 fold change, soluble protein after heating vs DMSO (PISA); higher = thermal stabilisation; K562 lysate, 10 uM; active = over 0.2 and 3.5 SD of the protein, either way, in both replicates (recomputed)
[1] = compound: CCCS(=O)(=O)Nc1ccc(F)c(C(=O)c2c[nH]c3ncc(-c4ccc(Cl)cc4)cc23)c1F [vemurafenib]
Outline: (§1)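 Following dounce homogenisation of K562 pellets in PBS pH 7.4 with 1 mM MgCl2, crude extract at 1 mg/mL protein was incubated for 30 min with 10 μM compound. Aliquots were then heated for 3 min over 48°C-58°C and pooled, NP-40 was added to 0.5% at 4°C, and soluble protein was recovered as the supernatant at 21,000xg for 90 min. Channel-sum-equalised TMTpro 16plex LC-MS/MS quantified this protein. Each value, from duplicates, is a log-two fold change in thermal stability relative to solvent controls.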

The chains behind the UniProt entries cited, without tags or fusion partners. Where a name states a change or a piece, a line headed by the entry shows the natural chain unless it says otherwise.
UniProt Q6XZF7: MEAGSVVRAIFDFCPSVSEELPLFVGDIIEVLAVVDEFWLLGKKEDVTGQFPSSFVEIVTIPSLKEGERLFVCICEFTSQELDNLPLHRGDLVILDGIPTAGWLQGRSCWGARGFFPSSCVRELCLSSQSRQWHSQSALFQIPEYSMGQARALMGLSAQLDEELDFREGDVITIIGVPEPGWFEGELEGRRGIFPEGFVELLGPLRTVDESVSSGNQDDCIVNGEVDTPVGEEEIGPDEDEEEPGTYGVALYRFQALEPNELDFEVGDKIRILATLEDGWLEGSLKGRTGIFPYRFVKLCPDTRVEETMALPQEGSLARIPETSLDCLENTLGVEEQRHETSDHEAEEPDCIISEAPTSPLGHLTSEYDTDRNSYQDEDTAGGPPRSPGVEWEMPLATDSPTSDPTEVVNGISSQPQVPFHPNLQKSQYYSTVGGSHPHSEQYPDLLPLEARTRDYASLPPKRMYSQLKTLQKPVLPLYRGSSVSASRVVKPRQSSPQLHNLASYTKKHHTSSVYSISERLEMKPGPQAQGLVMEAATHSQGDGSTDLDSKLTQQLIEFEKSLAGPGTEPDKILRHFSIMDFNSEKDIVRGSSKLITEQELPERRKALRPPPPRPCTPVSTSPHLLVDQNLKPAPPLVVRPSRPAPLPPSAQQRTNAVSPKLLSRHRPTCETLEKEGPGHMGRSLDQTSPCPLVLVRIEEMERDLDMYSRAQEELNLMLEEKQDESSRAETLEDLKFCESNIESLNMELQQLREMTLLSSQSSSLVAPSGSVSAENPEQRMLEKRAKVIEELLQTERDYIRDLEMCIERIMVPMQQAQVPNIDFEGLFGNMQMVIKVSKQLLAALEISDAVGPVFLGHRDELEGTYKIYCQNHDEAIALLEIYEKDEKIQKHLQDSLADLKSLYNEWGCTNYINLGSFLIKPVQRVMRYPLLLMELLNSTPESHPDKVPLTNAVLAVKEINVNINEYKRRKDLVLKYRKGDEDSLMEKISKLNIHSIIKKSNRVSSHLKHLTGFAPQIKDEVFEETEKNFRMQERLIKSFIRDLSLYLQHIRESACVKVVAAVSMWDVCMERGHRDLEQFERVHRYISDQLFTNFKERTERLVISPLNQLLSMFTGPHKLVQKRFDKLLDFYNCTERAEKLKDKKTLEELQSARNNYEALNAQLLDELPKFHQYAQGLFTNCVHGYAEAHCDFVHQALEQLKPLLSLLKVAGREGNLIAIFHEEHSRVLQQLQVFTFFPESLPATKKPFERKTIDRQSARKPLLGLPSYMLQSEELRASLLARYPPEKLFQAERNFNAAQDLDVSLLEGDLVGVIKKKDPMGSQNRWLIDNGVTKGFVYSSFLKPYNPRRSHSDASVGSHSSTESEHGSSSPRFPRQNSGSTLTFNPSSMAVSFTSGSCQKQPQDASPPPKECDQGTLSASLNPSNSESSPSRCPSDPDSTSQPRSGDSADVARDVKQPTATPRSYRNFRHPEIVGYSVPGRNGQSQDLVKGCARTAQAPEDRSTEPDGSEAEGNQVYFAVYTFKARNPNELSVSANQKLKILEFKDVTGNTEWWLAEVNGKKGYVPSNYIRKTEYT
UniProt P00374: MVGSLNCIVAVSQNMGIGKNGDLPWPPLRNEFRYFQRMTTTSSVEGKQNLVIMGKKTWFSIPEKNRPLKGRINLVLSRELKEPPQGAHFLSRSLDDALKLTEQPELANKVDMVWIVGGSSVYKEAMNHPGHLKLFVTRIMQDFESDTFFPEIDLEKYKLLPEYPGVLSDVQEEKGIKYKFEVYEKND
UniProt Q9P265: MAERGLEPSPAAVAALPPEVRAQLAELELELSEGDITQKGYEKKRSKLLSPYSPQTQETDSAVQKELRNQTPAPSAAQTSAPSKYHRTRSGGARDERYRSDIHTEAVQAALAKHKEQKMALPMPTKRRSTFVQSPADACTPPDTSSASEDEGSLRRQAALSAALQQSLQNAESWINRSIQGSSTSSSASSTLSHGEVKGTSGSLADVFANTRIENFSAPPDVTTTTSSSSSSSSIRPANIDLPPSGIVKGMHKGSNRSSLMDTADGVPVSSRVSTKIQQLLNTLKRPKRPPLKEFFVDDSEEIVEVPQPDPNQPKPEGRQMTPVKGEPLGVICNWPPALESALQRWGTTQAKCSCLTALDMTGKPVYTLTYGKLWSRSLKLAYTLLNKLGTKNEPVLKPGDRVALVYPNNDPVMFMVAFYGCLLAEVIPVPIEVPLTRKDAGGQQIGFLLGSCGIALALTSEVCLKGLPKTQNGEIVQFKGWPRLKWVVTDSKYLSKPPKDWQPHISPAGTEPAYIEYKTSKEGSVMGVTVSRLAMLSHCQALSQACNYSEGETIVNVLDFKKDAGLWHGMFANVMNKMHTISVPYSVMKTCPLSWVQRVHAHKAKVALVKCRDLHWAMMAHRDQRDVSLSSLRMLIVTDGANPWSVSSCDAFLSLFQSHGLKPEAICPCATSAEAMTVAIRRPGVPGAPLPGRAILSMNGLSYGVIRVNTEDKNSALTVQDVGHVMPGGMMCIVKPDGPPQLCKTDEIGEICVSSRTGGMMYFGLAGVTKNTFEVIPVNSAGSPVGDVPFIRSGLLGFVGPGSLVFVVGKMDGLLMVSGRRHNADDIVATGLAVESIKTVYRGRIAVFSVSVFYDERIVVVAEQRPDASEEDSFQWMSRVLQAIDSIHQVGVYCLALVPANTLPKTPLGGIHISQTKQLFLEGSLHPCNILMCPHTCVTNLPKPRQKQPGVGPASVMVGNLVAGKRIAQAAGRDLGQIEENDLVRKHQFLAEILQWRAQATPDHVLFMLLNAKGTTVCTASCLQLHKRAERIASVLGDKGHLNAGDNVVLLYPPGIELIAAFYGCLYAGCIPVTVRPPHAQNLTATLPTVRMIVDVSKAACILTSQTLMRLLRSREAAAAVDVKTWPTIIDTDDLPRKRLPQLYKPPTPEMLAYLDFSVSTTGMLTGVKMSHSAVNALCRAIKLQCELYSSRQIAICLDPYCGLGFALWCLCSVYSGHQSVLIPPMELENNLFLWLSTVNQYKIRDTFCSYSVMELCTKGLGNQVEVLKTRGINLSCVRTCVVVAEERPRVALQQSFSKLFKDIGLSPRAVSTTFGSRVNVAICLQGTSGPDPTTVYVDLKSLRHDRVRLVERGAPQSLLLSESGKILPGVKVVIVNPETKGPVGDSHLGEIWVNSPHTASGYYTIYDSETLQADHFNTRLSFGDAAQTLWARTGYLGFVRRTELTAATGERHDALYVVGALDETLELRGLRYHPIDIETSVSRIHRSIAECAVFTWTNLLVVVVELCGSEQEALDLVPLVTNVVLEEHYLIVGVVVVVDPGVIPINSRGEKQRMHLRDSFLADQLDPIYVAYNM
UniProt Q14689: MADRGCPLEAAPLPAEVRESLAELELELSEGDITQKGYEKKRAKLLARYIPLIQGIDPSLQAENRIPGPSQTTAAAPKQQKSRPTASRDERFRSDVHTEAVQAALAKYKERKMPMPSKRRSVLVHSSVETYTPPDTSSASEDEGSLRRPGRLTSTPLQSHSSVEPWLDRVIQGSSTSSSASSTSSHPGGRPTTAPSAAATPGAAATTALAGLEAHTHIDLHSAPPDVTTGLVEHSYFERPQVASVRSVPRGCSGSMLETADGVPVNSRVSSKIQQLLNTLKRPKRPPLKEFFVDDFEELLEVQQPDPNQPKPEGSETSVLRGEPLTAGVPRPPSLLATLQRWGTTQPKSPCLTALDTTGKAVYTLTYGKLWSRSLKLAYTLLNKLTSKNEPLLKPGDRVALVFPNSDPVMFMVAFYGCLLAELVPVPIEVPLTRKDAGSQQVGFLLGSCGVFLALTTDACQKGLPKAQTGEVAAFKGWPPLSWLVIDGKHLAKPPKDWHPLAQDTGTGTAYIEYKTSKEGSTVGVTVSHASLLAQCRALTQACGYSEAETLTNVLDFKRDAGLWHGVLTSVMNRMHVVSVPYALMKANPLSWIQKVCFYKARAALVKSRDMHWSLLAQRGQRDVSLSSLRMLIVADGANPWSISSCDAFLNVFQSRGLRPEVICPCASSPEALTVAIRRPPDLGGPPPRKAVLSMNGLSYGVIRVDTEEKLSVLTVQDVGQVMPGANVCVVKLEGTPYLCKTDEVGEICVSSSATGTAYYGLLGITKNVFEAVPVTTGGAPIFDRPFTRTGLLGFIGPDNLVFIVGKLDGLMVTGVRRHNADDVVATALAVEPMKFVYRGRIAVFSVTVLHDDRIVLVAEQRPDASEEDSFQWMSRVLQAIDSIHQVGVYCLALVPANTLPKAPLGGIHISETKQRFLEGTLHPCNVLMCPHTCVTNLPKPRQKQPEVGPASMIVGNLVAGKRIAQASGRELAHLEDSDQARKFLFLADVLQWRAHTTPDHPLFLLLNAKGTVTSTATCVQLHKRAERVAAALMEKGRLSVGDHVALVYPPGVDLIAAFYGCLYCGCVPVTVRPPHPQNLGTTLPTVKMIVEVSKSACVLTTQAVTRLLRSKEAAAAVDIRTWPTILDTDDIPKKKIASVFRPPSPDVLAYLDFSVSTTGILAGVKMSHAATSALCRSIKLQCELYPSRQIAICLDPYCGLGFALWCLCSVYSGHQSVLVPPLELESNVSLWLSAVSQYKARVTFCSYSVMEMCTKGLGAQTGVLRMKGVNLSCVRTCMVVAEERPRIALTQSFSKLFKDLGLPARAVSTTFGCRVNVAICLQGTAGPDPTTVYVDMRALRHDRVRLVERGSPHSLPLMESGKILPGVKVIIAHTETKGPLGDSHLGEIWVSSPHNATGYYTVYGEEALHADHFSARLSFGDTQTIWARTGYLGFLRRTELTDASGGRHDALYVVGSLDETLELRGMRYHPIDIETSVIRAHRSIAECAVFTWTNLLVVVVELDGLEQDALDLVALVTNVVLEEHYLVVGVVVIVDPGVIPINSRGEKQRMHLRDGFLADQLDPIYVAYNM
UniProt Q6UWP2: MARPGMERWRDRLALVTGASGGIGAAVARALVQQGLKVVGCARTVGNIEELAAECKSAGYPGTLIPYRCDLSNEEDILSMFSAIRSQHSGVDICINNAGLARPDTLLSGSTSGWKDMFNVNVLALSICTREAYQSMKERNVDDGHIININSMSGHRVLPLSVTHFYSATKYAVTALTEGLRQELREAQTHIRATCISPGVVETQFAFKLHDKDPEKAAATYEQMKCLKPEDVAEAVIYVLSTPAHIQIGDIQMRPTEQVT
UniProt Q6P158: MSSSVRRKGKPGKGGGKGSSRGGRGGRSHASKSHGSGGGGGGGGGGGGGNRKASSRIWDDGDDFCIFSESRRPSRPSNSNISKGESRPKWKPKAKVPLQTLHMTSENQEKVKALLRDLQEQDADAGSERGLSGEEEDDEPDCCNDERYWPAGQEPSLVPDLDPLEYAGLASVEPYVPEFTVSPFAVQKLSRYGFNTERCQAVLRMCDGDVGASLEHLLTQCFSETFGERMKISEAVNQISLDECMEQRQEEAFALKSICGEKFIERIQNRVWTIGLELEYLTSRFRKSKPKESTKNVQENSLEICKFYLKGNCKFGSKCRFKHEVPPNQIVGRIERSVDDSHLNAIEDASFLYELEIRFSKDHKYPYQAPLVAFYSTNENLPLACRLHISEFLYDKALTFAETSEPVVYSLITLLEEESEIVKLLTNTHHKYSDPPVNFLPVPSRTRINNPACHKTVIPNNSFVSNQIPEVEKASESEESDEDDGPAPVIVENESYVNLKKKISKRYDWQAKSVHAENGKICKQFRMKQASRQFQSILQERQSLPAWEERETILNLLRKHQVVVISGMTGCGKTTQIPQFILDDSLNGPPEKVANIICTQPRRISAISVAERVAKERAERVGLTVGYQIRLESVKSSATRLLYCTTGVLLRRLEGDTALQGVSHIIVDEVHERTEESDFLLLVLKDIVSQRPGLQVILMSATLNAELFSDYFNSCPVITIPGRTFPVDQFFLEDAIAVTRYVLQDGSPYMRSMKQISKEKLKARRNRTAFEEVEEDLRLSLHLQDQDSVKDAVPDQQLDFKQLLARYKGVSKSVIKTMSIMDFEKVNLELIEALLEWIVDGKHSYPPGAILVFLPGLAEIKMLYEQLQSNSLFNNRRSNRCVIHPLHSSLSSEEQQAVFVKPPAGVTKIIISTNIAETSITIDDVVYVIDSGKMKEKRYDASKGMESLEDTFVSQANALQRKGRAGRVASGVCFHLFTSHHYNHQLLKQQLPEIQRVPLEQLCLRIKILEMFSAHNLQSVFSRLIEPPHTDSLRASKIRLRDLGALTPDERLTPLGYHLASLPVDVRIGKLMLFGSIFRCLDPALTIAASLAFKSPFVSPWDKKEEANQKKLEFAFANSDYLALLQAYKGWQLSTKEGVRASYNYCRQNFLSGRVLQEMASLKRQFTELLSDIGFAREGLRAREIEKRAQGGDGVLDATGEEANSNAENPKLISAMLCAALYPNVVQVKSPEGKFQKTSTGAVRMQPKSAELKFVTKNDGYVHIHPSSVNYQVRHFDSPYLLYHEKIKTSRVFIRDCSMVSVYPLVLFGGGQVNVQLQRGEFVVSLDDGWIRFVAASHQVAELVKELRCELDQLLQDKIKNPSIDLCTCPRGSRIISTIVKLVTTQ

[2] = compound: CCCS(=O)(=O)Nc1ccc(F)c(C(=O)c2c[nH]c3ncc(Cl)cc23)c1F
Outline: as §1

[3] = compound: CCN(CCCOc1ccc2c(Nc3cc(CC(=O)Nc4cccc(F)c4)[nH]n3)ncnc2c1)CCOP(=O)(O)O [barasertib]
Outline: as §1

[4] = compound: CC[C@@H]1C(=O)N(C)c2cnc(Nc3ccc(C(=O)NC4CCN(C)CC4)cc3OC)nc2N1C1CCCC1
Outline: as §1

[5] = compound: CC[C@@H]1C(=O)N(C)c2cnc(Nc3ccc(C(=O)N[C@H]4CC[C@H](N5CCN(CC6CC6)CC5)CC4)cc3OC)nc2N1C(C)C [volasertib]
Outline: as §1

[6] = compound: CCn1c(C(=O)N(C2CC2)C2CC2)cc2c3c(ncn3C)c(Nc3cc(C)n(C)n3)nc21
Outline: as §1

[7] = compound: CCn1cc(-c2ccnc3[nH]c(-c4cccc(CN(C)C)c4)cc23)c(-c2ccc(NC(=O)N(C)C)cc2)n1
Outline: as §1

[8] = compound: CN1CCC(CNc2ccc3ncc(-c4cccc(OC(F)(F)F)c4)n3n2)CC1
Outline: as §1

[9] = compound: CN1CCN(CCOc2cc(OC3CCOCC3)c3c(Nc4c(Cl)ccc5c4OCO5)ncnc3c2)CC1 [saracatinib]
Outline: as §1

[10] = compound: CN1CCN(c2nc(C3=C(c4c[nH]c5ccccc45)C(=O)NC3=O)c3ccccc3n2)CC1 [sotrastaurin]
Outline: as §1

Row | Target | log2 fold change [1] | log2 fold change [2] | log2 fold change [3] | log2 fold change [4] | log2 fold change [5] | log2 fold change [6] | log2 fold change [7] | log2 fold change [8] | log2 fold change [9] | log2 fold change [10]
1 | DNAJC3 (UniProt Q13217) | inactive: -0.016 | inactive: 0.009 | inactive: 0.006 | inactive: 0.023 | inactive: -0.004 | inactive: 0.082 | inactive: 0.016 | inactive: -0.076 | inactive: 0.008 | inactive: -0.109
2 | DHX29 (UniProt Q7Z478) | inactive: -0.007 | inactive: 0.029 | inactive: 0.019 | inactive: 0.019 | inactive: -0.015 | inactive: -0.036 | inactive: -0.06 | inactive: -0.024 | inactive: 0.009 | inactive: 0.01
3 | DNAH10 (UniProt Q8IVF4) | inactive: 0.067 | inactive: 0 | inactive: 0.069 | inactive: 0.064 | inactive: 0.044 | inactive: -0.05 | active: -0.582 | inactive: 0.139 | inactive: 0.022 | inactive: -0.029
4 | DHRS7B (UniProt Q6IAN0) | inactive: -0.025 | inactive: 0.036 | inactive: 0.015 | inactive: -0.013 | inactive: -0.031 | inactive: -0.033 | inactive: -0.066 | inactive: 0.018 | inactive: -0.026 | inactive: 0.036
5 | DNM2 (UniProt P50570) | inactive: 0.002 | inactive: 0.005 | inactive: 0.037 | inactive: -0.024 | inactive: -0.043 | inactive: 0.029 | inactive: -0.012 | inactive: 0.013 | inactive: 0.016 | inactive: 0.001
6 | DNAJA1 (UniProt P31689) | inactive: 0.007 | inactive: -0.025 | inactive: -0.013 | inactive: -0.002 | inactive: 0 | inactive: -0.003 | inactive: -0.166 | inactive: 0.043 | inactive: 0.035 | inactive: 0.042
7 | DNAJC21 isoform 3 (UniProt Q5F1R6) | inactive: 0.011 | inactive: 0.004 | inactive: 0.022 | inactive: -0.008 | inactive: -0.007 | inactive: 0.008 | inactive: 0.124 | inactive: -0.115 | inactive: 0.009 | inactive: 0.028
8 | DMXL2 isoform 3 (UniProt Q8TDJ6) | inactive: 0.044 | inactive: 0.003 | inactive: 0.102 | inactive: 0.073 | inactive: -0.058 | inactive: 0.025 | inactive: -0.051 | inactive: 0.059 | inactive: 0.023 | inactive: 0.028
9 | DNMBP (UniProt Q6XZF7) | inactive: 0.025 | inactive: 0.01 | inactive: 0.029 | inactive: -0.008 | inactive: 0.024 | inactive: -0.066 | inactive: 0.172 | inactive: -0.139 | inactive: 0.111 | inactive: 0.046
10 | DNAJB4 (UniProt Q9UDY4) | inactive: 0.005 | inactive: -0.007 | inactive: 0.072 | inactive: 0.012 | inactive: -0.112 | inactive: 0.04 | inactive: 0.011 | inactive: -0.013 | inactive: 0.011 | inactive: -0.019
11 | DMD (UniProt P11532) | inactive: 0.005 | inactive: 0.025 | inactive: 0.023 | inactive: 0.047 | inactive: -0.04 | inactive: -0.004 | inactive: 0.103 | inactive: 0.006 | inactive: 0.006 | inactive: 0.029
12 | DNM1L isoform 6 (UniProt O00429) | inactive: 0.02 | inactive: -0.007 | inactive: 0.002 | inactive: -0.002 | inactive: -0.023 | inactive: 0.026 | inactive: 0.079 | inactive: -0.063 | inactive: 0.016 | inactive: -0.017
13 | DIAPH1 (UniProt O60610) | inactive: -0.002 | inactive: -0.007 | inactive: 0.006 | inactive: -0.001 | inactive: -0.002 | inactive: 0.009 | inactive: 0.091 | inactive: -0.042 | inactive: -0.006 | inactive: -0.001
14 | DHFR (UniProt P00374) | inactive: -0.047 | active: 0.206 | inactive: 0.061 | inactive: -0.035 | inactive: 0.013 | inactive: 0.046 | inactive: 0.072 | inactive: -0.019 | inactive: -0.008 | inactive: 0.042
15 | DIABLO (UniProt Q9NR28) | inactive: 0.008 | inactive: -0.021 | inactive: 0.202 | inactive: 0.01 | inactive: 0.024 | inactive: 0.006 | inactive: -0.136 | inactive: 0.013 | inactive: 0.039 | inactive: 0.033
16 | DIP2B (UniProt Q9P265) | inactive: 0.017 | inactive: 0.001 | inactive: 0.006 | inactive: -0.018 | inactive: 0.015 | inactive: -0.04 | inactive: -0.067 | inactive: 0.015 | inactive: -0.011 | inactive: 0.014
17 | DHX15 (UniProt O43143) | inactive: 0 | inactive: 0.023 | inactive: 0 | inactive: -0.019 | inactive: -0.004 | inactive: -0.031 | inactive: 0.009 | inactive: 0.034 | inactive: -0.006 | inactive: 0.017
18 | DHRS4 (UniProt Q9BTZ2) | inactive: 0.014 | inactive: -0.017 | inactive: -0.03 | inactive: 0.019 | inactive: 0.027 | inactive: -0.037 | inactive: -0.025 | inactive: 0.024 | inactive: -0.042 | inactive: 0.015
19 | DOLPP1 (UniProt Q86YN1) | inactive: 0.033 | inactive: 0.016 | inactive: -0.056 | inactive: 0.026 | inactive: 0.031 | inactive: -0.028 | inactive: -0.071 | inactive: 0 | inactive: -0.012 | inactive: 0.036
20 | DIP2A (UniProt Q14689) | inactive: 0.109 | inactive: 0.012 | inactive: 0.051 | inactive: -0.02 | inactive: -0.041 | inactive: 0.069 | inactive: -0.027 | inactive: 0.009 | inactive: -0.012 | inactive: 0.07
21 | DHX9 (UniProt Q08211) | inactive: -0.001 | inactive: 0.022 | inactive: -0.006 | inactive: 0.022 | inactive: -0.017 | inactive: 0.035 | inactive: 0.002 | inactive: -0.03 | inactive: 0.007 | inactive: 0.006
22 | DMTF1 (UniProt Q9Y222) | inactive: 0.12 | inactive: 0.028 | inactive: -0.109 | inactive: 0.135 | inactive: 0 | inactive: -0.034 | inactive: -0.084 | inactive: 0.021 | inactive: 0.028 | inactive: -0.015
23 | DNAJB6 (UniProt O75190) | inactive: -0.026 | inactive: 0.017 | inactive: 0.046 | inactive: -0.005 | inactive: 0.011 | inactive: -0.001 | inactive: -0.018 | inactive: 0.008 | inactive: 0.079 | inactive: 0.015
24 | DLAT (UniProt P10515) | inactive: -0.004 | inactive: 0.01 | inactive: -0.021 | inactive: -0.036 | inactive: 0.023 | inactive: -0.037 | inactive: -0.037 | inactive: 0.073 | inactive: 0.048 | inactive: -0.003
25 | DNMT1 isoform 2 (UniProt P26358) | inactive: -0.027 | inactive: 0.01 | inactive: -0.014 | inactive: 0 | inactive: 0.012 | inactive: 0.02 | inactive: 0.02 | inactive: -0.009 | inactive: -0.002 | inactive: 0.011
26 | DHRS11 (UniProt Q6UWP2) | inactive: 0.015 | inactive: 0.007 | inactive: 0 | inactive: -0.019 | inactive: -0.026 | inactive: 0.023 | inactive: -0.03 | inactive: 0.025 | inactive: 0.013 | inactive: 0.004
27 | DHRS4L1 (UniProt P0CG22) | inactive: -0.085 | inactive: 0.01 | inactive: 0.014 | inactive: 0.015 | inactive: -0.018 | inactive: -0.058 | inactive: 0.116 | inactive: 0.049 | inactive: 0.063 | inactive: -0.052
28 | DHX57 (UniProt Q6P158) | inactive: 0.019 | inactive: 0.031 | inactive: 0.032 | inactive: -0.045 | inactive: -0.023 | inactive: 0.056 | inactive: -0.021 | inactive: 0.009 | inactive: -0.033 | inactive: 0.039

Only log2 fold change [6], log2 fold change [7] and log2 fold change [9] (two entries from above):

| Row | Target | log2 fold change [6] | log2 fold change [7] | log2 fold change [9] |
| --- | --- | --- | --- | --- |
| 3 | DNAH10 (UniProt Q8IVF4) | inactive: -0.05 | active: -0.582 | inactive: 0.022 |
| 4 | DHRS7B (UniProt Q6IAN0) | inactive: -0.033 | inactive: -0.066 | inactive: -0.026 |
